According to PubChem BioAssay AID2685 (National Center for Advancing Translational Sciences (NCATS), 2010):
This is one part of the list. Shown are side measurements of this screen, not its main read-out; they come without a call. Compounds called inactive in the main read-out are mostly missing here. Potencies come from curve fits of mixed quality, noted in brackets.

Assay: qHTS Assay for Lipid Storage Modulators in Drosophila S3 Cells;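 for cell number change: cells counted by Cell Tracker Red CMTPX staining in the red channel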
Details: BODIPY lipid droplet fluorescence, 18-24 h; for cell number change: measured here: cell count max response, cells fed with added oleic acid
Outline: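 Laser-scanning cytometry quantifies lipid droplet accumulation (500–530 nm total intensity; droplet/cell object ratio) in oleic acid-fed (400 uM added) Drosophila S3 cells treated with a concentration series. 20 uM Triacsin C defined 100% inhibition.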

[1] = measured here: cell number channel AC50, cells fed with added oleic acid
[2] = measured here: lipid fluorescence (Fed channel) AC50, cells fed with added oleic acid

SMILES | cell number change [%] | AC50 [1] | AC50 [2]
COCCNC(=O)C(=O)N/N=C/c1cccs1 | 30.9 | 116 nM [rising, full curve, poor fit] | 16.4 nM [rising, full curve]
O=C(Nc1cc(S(=O)(=O)N2CCOCC2)ccc1N1CCCCC1)c1ccccc1 | -0.194 | 2060 nM [rising, partial curve, poor fit] | 820 nM [rising, full curve, poor fit]
CCOc1ccc(NC(=O)N2CCC(NC(=O)C(Cc3cccc(F)c3)NC(C)=O)CC2)cc1 (configuration not stated) | -2.1 |  | 
COCCNC(=O)CSc1cc(-c2ccccc2)c2ccc(OC)cc2n1 | 14.2 | 6510 nM [rising, single point] | 580 nM [falling, single point]
Cc1nc2ccc(C(=O)N/N=C/c3ccc(O)cc3)cc2[nH]1 | 4.76 |  | 5800 nM [rising, single point]
Cc1cc(Cl)ccc1OCC(=O)OCC(=O)Nc1cccnc1Cl | 7.03 |  | 6510 nM [rising, single point]
Cc1oc2cc(O)cc(O)c2c(=O)c1-c1ccc2c(c1)OCCCO2 | -38.5 | 29100 nM [falling, single point] | 29100 nM [falling, single point]
O=C(COC(=O)C1CC1)Nc1ccc(Oc2ccccc2)cc1 | 11.3 |  | 14600 nM [falling, partial curve]
Fc1ccccc1/C=N/n1c(C2CCCCC2)n[nH]c1=S | -18.4 |  | 
C#CCOc1ccc(Br)cc1/C=N/O |  |  | 259 nM [rising, partial curve, poor fit]
CCCCN(c1ccccc1)S(=O)(=O)c1ccc2c(c1)CCN2C(=O)CCC(=O)O |  |  | 5170 nM [falling, partial curve]
COc1ccc(NS(=O)(=O)c2ccc(-n3nnc4ccccc43)c([N+](=O)[O-])c2)cc1 | -19.4 | 5.17 nM [falling, full curve, poor fit] | 116 nM [falling, full curve]
COc1ccc(S(=O)(=O)Nc2ccc(S(=O)(=O)N3CCOCC3)cc2)cc1 | -4.78 |  | 206 nM [rising, full curve]
COc1ccc(CN2CCN(C(=O)c3cccc4ccccc34)CC2)c(OC)c1OC | 3.56 |  | 
Cc1ccc(C(CNC(=O)C(=O)Nc2ccc3c(c2)OCCO3)N2CCN(C)CC2)cc1 (configuration not stated) | -10.9 | 116 nM [falling, full curve, poor fit] | 731 nM [falling, full curve, poor fit]
CCN(CC(=O)NC(c1ccccc1)c1ccccc1)Cc1nc2ccccc2c(=O)[nH]1 |  | 820 nM [rising, partial curve, poor fit] | 
C=C(C)CSc1cc(C)c(C#N)c2nc3ccccc3n12 | -7.72 |  | 6.51 nM [rising, full curve, poor fit]
Cn1c(=O)c(C(=O)NNC(=O)c2ccc(Br)cc2)c(O)c2ccccc21 |  |  | 6510 nM [falling, single point]
CCC1CSC(=Nc2ccc(C)cc2)N1C(=O)CN1C(=O)NC2(CCCC2)C1=O (configuration not stated) | -16.3 |  | 

Three entries from above, ordered by number of heavy atoms, largest number first:
SMILES | cell number change [%] | AC50 [1] | AC50 [2]
CCOc1ccc(NC(=O)N2CCC(NC(=O)C(Cc3cccc(F)c3)NC(C)=O)CC2)cc1 (configuration not stated) | -2.1 |  | 
Cc1oc2cc(O)cc(O)c2c(=O)c1-c1ccc2c(c1)OCCCO2 | -38.5 | 29100 nM [falling, single point] | 29100 nM [falling, single point]
Cc1cc(Cl)ccc1OCC(=O)OCC(=O)Nc1cccnc1Cl | 7.03 |  | 6510 nM [rising, single point]

Carrying on.

SMILES | cell number change [%] | AC50 [1] | AC50 [2]
Cc1cccc(NCCNc2cccc(C)c2)c1 | -45.5 | 29100 nM [falling, single point] | 29100 nM [falling, single point]
O=C(O)C1CC=CCC1C(=O)Nc1cccc(Cl)c1 (configuration not stated) | 15.9 |  | 9200 nM [rising, partial curve]
COc1ccc(-n2nc(C(=O)NCC(=O)N3CCCCCC3)c3ccccc3c2=O)c(OC)c1 | 29.1 |  | 6510 nM [falling, single point]
COCc1cc(C)nc(N2CCc3ccccc32)c1C#N | 94.2 | 23100 nM [rising, single point] | 1300 nM [rising, full curve, poor fit]
CCCCNC(=O)Cn1c(=O)c2c(ncn2CCC(C)C)n(Cc2ccccc2)c1=O | 24.3 |  | 
COc1ccc(-n2ncc3c(N4CCN(c5cccc(C)c5C)CC4)ncnc32)cc1 | -5.09 |  | 29100 nM [rising, single point]
COc1ccc(C(=O)Oc2ccc(N(C)S(=O)(=O)c3ccccc3)cc2)cc1[N+](=O)[O-] | -6.05 |  | 259 nM [falling, full curve, poor fit]
CN(c1ccccc1)S(=O)(=O)c1ccc(Cl)c(C(=O)Nc2nc3ccccc3[nH]2)c1 | -17.6 |  | 2060 nM [rising, partial curve]
Cc1ccc(C)c(CNS(=O)(=O)c2c(C)[nH]c(C)c2C(=O)N2CCCCC2)c1 | 2.75 |  | 580 nM [falling, single point]
COc1ccc(CNC(=O)COc2ccc(S(=O)(=O)N3CCCCC3)cc2Cl)cc1 | -13.9 |  | 
CCn1c(=N)n(CCO)c2ccccc21 | 16.9 | 731 nM [falling, full curve, poor fit] | 184 nM [falling, full curve, poor fit]
NC(=O)CC(O)c1cccc(Cl)c1 (configuration not stated) | 2.88 |  | 
COc1ccc(-c2noc(C3CCCN(C(=O)c4cccs4)C3)n2)cc1 (configuration not stated) | -12.9 |  | 6510 nM [rising, single point]
Cc1cc(Oc2cnn(C(C)(C)C)c(=O)c2Cl)cc(C(C)C)c1 | -64.4 | 18400 nM [falling, single point] | 
CCOC(=O)c1sc(N=NC2=C(O)CCCC2=O)c(C(=O)OCC)c1C | -1.21 |  | 5.8 nM [rising, full curve, poor fit]
Cc1ccc(SCC(=O)OCC(=O)N(C)C2CCS(=O)(=O)C2)cc1C (configuration not stated) | -0.672 |  | 3260 nM [falling, full curve]
O=C(Nc1nc2ccccc2s1)C1CCCO1 (configuration not stated) | -6.88 |  | 29100 nM [falling, single point]
CC12CCC(C(=O)NCc3ccc(F)cc3)(OC1=O)C2(C)C (configuration not stated) | -24.1 |  | 
COC(=O)c1[nH]c2ccc(Cl)cc2c1NC(=O)CCN1CCN(C2CCCCC2)CC1 |  | 6510 nM [falling, single point] | 
